Measured values reported in publication PMC12071771.
Results are given in words; binding and its absence hold for the method and conditions named. Binding seen in cells or lysates may run through a third protein. Some binding calls cover weakened binding; strength is not graded here.

Amino acid sequences for entries named in this document (tags omitted).
UniProt O70436: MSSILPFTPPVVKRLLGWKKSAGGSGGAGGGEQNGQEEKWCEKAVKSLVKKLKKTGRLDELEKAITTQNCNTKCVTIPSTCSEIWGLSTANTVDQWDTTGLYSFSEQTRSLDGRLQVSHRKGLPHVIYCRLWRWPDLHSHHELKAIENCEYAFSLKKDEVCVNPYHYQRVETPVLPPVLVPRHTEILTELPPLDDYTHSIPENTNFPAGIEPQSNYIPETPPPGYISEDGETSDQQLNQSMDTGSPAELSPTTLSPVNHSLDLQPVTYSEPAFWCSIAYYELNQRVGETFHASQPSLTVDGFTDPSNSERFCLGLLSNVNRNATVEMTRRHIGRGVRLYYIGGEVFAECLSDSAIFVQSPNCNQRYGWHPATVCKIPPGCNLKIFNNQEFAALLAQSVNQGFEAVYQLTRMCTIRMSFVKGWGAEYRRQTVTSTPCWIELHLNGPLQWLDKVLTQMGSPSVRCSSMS
UniProt O70437: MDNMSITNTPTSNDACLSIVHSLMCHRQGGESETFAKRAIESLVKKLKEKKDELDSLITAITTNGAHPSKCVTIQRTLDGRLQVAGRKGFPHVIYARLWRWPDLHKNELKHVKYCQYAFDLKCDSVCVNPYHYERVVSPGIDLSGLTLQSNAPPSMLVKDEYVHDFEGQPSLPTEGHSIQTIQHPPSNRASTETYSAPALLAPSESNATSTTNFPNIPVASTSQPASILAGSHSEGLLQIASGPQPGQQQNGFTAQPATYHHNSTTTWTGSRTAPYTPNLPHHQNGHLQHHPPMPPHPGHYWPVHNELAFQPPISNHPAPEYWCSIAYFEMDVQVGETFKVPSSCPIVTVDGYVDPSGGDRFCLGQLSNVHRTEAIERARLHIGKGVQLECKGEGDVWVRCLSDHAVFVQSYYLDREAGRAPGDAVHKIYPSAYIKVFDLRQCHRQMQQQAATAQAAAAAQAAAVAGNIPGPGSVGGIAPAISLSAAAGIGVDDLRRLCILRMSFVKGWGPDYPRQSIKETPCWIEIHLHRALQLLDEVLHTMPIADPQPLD

Molecular target: Smad2 (rat (endogenous in RBL-2H3)) (UniProt O70436)
Assay: co-IP; RBL-2H3 cells stimulated with 100 pM TGF-β for the indicated times (5 min to 24 h); lysed in modified lysis buffer (1% NP-40, 60 mM octyl-β-glucoside); 300 μg of protein per IP; detection by WB

## Smad4 (from UniProt O70437 1-552)
  binding: binds
